{"source": "paper PMC6956804", "about": "“Potent antibacterial activity of MSI-1 derived from the magainin 2 peptide against drug-resistant bacteria” (Theranostics, 2020)", "assay": "CD assay, secondary structure", "assay_type": "physicochemical", "details": "peptide 0.1 mg/ml, 37 °C", "note": "Peptide text beside a SMILES is read from it.", "data": [{"compound": "CC[C@H](C)[C@H](NC(=O)CN)C(=O)N[C@@H](Cc1c[nH]c2ccccc12)C(=O)N[C@@H](CCCCN)C(=O)N[C@@H](Cc1ccccc1)C(=O)N[C@@H](CC(C)C)C(=O)N[C@@H](CCCCN)C(=O)N[C@@H](CCCCN)C(=O)N[C@@H](C)C(=O)N[C@@H](CCCCN)C(=O)N[C@@H](CCCCN)C(=O)N[C@@H](Cc1ccccc1)C(=O)N[C@@H](Cc1c[nH]c2ccccc12)C(=O)N[C@@H](CCCCN)C(N)=O", "note": "[MSI-1] (H-GIWKFLKKAKKFWK-NH2)", "values": [{"measurement": "α-helical content", "setting": "LPS 50 μM", "result": 31.4, "unit": "%"}, {"measurement": "α-helical content", "setting": "MLVs 500 μM (0.2 DPPG/DPPE + DPPG molar ratio)", "result": 34.2, "unit": "%"}, {"measurement": "α-helical content", "setting": "SDS 50 mM", "result": 97.5, "unit": "%"}]}]}
